This is an account of results in the odorant receptor screen of Mainland et al. (2015).

Holding throughout (test): odorant receptor activation (CRE luciferase / Renilla) (fold of no-odor wells); higher = more activation
Settings in all cases: 100 µM

Assay [1] relates to OR13C3 G2C clone 1339.
The test system of assay [2] is OR13C3 clone 1390.
The test system of assay [3] is OR13C4 clone 1094.
Assay [4] relates to OR13C7 Indel clone 1100.
Assay [5] concerns OR13C8 clone 1095.
For assay [6], the system named is OR13C9 F197L clone 1096.
The test system of assay [7] is OR13D1 clone 1338.
Assay [8] has as its system OR13F1 F18S/M101V/V134I/I270T clone 1097.
Assay [9] deals with OR13G1 I132V clone 1036.
In assay [10] the test system is OR13J1 H133R clone 1098.
For assay [11], the system named is OR14A16 Indel clone 1030.
Assay [12] has as its system OR14A2 clone 1042.
The test system of assay [13] is OR14C36 G225R/D231Y clone 1028.
In assay [14] the test system is OR14J1 clone 1318.
Assay [15] relates to OR14J1 clone 1391.
Assay [16] deals with OR14K1 clone 1043.
The test system of assay [17] is OR13C5 S18F/L69M/P79S/L86V/N128S/M258T clone 1477.
Assay [18] relates to OR13D1 clone 1484.
Assay [19] deals with OR13H1 clone 1497.
Assay [20] has as its system OR14I1 V36A/D50N/S170N clone 1479.

SMILES strings stand for the structures. Several values for one entry are separate records, joined by “and”; a condition that tells them apart may be missing. Equal values may be shown once. The list shows a part of the results. Single wells; the ratio to wells without odorant was worked out here, and repeats agree poorly.

In the case of `CC1COCc2cc3c(cc21)C(C)(C)C(C)C3(C)C` (stereo unspecified) [galaxolide], the odorant receptor activation in [1] is 3.41 and 2.77; in assay [2], 4.31; in assay [3], 3.57; in [4] it was 1.78; in [5] it was 2.6; in assay [6], 6.73. In addition, the odorant receptor activation in [7] was 5.01 and 2.97; in assay [8] it was 6; in assay [9], 2.75; in [10], 1.15; in assay [11], 5.54; in [12] it was 3.15. Besides, the odorant receptor activation is 4.35 in assay [13]; 3.32 and 2.58 in assay [14]; 4.17 in [15]; 5.39 in assay [16].
As to `CC(=O)OCC=C(C)CCC=C(C)C` [geranyl acetate], the odorant receptor activation in [1] was 1.5 and 1.31; in assay [2], 1.15; in [3], 1.38; in assay [17], 0.78 and 1.2; in [4], 0.622; in [5] it was 2.11. The odorant receptor activation in assay [6] was 2.12; in [7], 2.6 and 0.909; in assay [18], 1.27 and 1.42; in assay [8] it was 4.5; in assay [9], 1.63; in assay [19], 0.951 and 1.28. Moreover, the odorant receptor activation in assay [10] is 0.803; in assay [11], 2.71; in [12], 1.23; in [13] it was 1.44; in [20] it was 1.06 and 1.22; in assay [14], 1.13 and 1.14. For the same molecule, the results for the odorant receptor activation in assay [15] and in [16] were 1.11 and 2.34, respectively.
In the case of `O=C1CCCCCCCCCCCC(=O)OCCO1` [ethylene brassylate], the odorant receptor activation in assay [1] amounted to 1.67; in [2] it was 1.74; in assay [3], 1.22; in [17], 1.25; in assay [4] it was 1.15; in [5] it was 1.24. Besides, the odorant receptor activation in assay [6] amounted to 1.18; in assay [7], 1.25; in [18] it was 1.21; in [8], 1.13; in assay [9] it was 1.8; in [19], 1.02. Further, the odorant receptor activation in [10] amounted to 1.42; in assay [11], 1.76; in assay [12], 1.74; in assay [13] it was 2.04; in [20], 1.02; in [14], 1.62. Moreover, the odorant receptor activation was found to be 1.99 in [15] and 1.83 in assay [16].
Consider `CC1=NC(C)SC1C` (stereo unspecified), for which the odorant receptor activation was 1.02 in assay [1]; 0.996 in assay [2]; 0.612 in assay [3]; 0.903 and 0.893 in [17]; 0.582 in assay [4]; 1.43 in assay [5]. The odorant receptor activation in assay [6] is 1.41; in [7], 1.03; in [18] it was 1 and 1.26; in assay [8], 0.564; in [9], 0.607; in assay [19], 0.964 and 1. Moreover, the odorant receptor activation in assay [10] was 1.16; in assay [11], 0.559; in assay [12] it was 1.04; in [13], 1.27; in assay [20], 1.05 and 0.78; in assay [14], 0.743. Further, the figures for the odorant receptor activation in assay [15] and in assay [16] were 1.12 and 0.862, respectively.
For the molecule `O=CCc1ccccc1` [phenyl acetaldehyde], the odorant receptor activation in [1] was determined as 1.11; in assay [2] it was 1.27; in [3] it was 1.35; in assay [17] it was 1.1; in assay [4], 1.05; in assay [5] it was 1.36. The odorant receptor activation in assay [6] worked out at 1.23; in assay [7], 1.12; in [18], 0.978; in assay [8], 1.48; in [9], 1.89; in assay [19], 1.37. The odorant receptor activation in [10] was 2.08; in assay [11] it was 1.26; in assay [12], 1.15; in assay [13] it was 0.992; in assay [20] it was 1.08; in assay [14], 1.12. The figures for the odorant receptor activation in assay [15] and in [16] were 1.64 and 1.25, respectively.
Regarding `CC(C)CC(=O)O` [isovaleric acid], the odorant receptor activation in [1] worked out at 0.913; in assay [2], 0.64; in [3] it was 1.12; in assay [17], 0.961; in [4], 1.18; in assay [5], 1.14. For the same molecule, the odorant receptor activation in [6] was 1.13; in assay [7], 1.03; in [18] it was 0.712; in assay [8] it was 1.37; in assay [9], 1.13; in assay [19], 0.928. Moreover, the odorant receptor activation in assay [10] was 1.4; in assay [11] it was 1.42; in [12], 1.09; in assay [13], 1.28; in assay [20], 0.791; in assay [14], 0.708. Further, the odorant receptor activation in assay [15] turned out to be 0.765; in assay [16] it was 1.08.
In the case of `CCCCCCCCCC=O` [decyl aldehyde], the odorant receptor activation in assay [1] was determined as 1.52; in assay [2], 1.38; in assay [3], 0.888; in assay [17], 1.14; in [4], 0.973; in assay [5], 1.21. Besides, the odorant receptor activation in assay [6] turned out to be 1.13; in assay [7], 1.41; in assay [18], 1.19; in assay [8], 1.01; in assay [9], 1.36; in assay [19], 1.03. The odorant receptor activation in [10] was found to be 1.32; in assay [11] it was 1.23; in assay [12], 1.1; in [13] it was 1.44; in [20], 0.916; in assay [14], 1.15. Further, the odorant receptor activation was 1.46 in assay [15] and 1.25 in [16].
With `CC12C=CCC1C1CCC3CC(=O)CCC3(C)C1CC2` (stereo unspecified) [androstenone], the odorant receptor activation in assay [1] was 1.09; in [2], 1.1; in [3] it was 10.1; in [17] it was 1.2; in assay [4], 7.87; in [5], 1.4. Further, the odorant receptor activation came out at 16.6 in assay [6]; 0.979 in assay [7]; 0.871 in assay [18]; 1.26 in [8]; 2.11 in assay [9]; 1.02 in assay [19]. Moreover, the odorant receptor activation in assay [10] stood at 2.2; in [11], 1.82; in [12] it was 1.89; in assay [13], 1.91; in [20], 1.03; in assay [14], 1.08. The odorant receptor activation in [15] is 2.27; in assay [16] it was 1.4.
Consider `C=CCc1ccc(O)c(OC)c1` [eugenol], for which the odorant receptor activation in assay [1] was 2.91 and 1.42; in assay [2], 1.49 and 1.48; in assay [3] it was 0.698 and 1.17; in [17] it was 0.982 and 1.09 and 0.934; in assay [4], 0.743 and 1.4; in assay [5], 2.51 and 1.48. The odorant receptor activation is 0.941 and 1.39 in assay [6]; 1.2 and 1.23 in assay [7]; 0.918 and 1.07 and 1.85 in assay [18]; 1.77 and 1.17 in assay [8]; 0.732 and 1.76 in assay [9]; 1.46 and 1.13 and 1.6 in [19]. The odorant receptor activation in [10] is 0.997 and 1.66; in [11] it was 0.93 and 1.44; in assay [12], 3.44 and 1.69; in [13], 1.59 and 1.68; in assay [20], 1.57 and 0.765 and 1.23; in assay [14], 1.37 and 1.38. Moreover, the odorant receptor activation was 1.22 and 1.41 in assay [15]; 0.557 and 1.59 in assay [16].
In the case of `O=C1CCCCCCCCCCCCCCO1` [pentadecalactone], the odorant receptor activation in [1] came out at 0.742; in assay [2], 1; in [3] it was 1.1; in [17], 0.78; in [4], 0.678; in assay [5], 1.14. Besides, the odorant receptor activation turned out to be 0.725 in assay [6]; 0.857 in assay [7]; 0.781 in assay [18]; 0.776 in assay [8]; 1.32 in [9]; 0.816 in assay [19]. Also, the odorant receptor activation in assay [10] came to 1.22; in assay [11], 0.933; in assay [12], 0.944; in assay [13] it was 0.799; in assay [20], 0.943; in assay [14], 0.804. Moreover, the results for the odorant receptor activation in assay [15] and in assay [16] were 1.47 and 0.783, respectively.
On to `CCCCCCCC=CC=O` [2-decenal], for which the odorant receptor activation was 1.19 in assay [1]; 1.3 in assay [2]; 23.2 in assay [3]; 1.55 in assay [17]; 13.7 in [4]; 3.48 in assay [5]. The odorant receptor activation turned out to be 33.8 in [6]; 0.99 in assay [7]; 1.33 in assay [18]; 2.01 in [8]; 29.7 in [9]; 1.64 in assay [19]. Also, the odorant receptor activation in assay [10] is 3.22; in [11] it was 4.52; in [12] it was 15.8; in assay [13], 11.6; in [20] it was 1.19; in [14], 1.57. The results for the odorant receptor activation in assay [15] and in assay [16] were 2.85 and 10.4, respectively.
Consider `CC12CCC(C1)C(C)(C)C2=O` (stereo unspecified) [fenchone], for which the odorant receptor activation in assay [1] was 0.962; in assay [2] it was 0.837; in assay [3] it was 0.792; in [17], 0.901; in [4], 0.814; in assay [5] it was 0.853. The odorant receptor activation in assay [6] stood at 1.04; in assay [7], 0.874; in assay [18], 1.31; in assay [8], 0.802; in assay [9], 0.935; in assay [19], 1.07. In addition, the odorant receptor activation in [10] worked out at 1.17; in [11], 1.16; in [12], 1.09; in [13], 0.966; in assay [20], 0.977; in assay [14] it was 0.969. The odorant receptor activation in [15] turned out to be 1.02; in assay [16], 1.12.
On to `CC(C)C=O` [isobutyraldehyde], for which the odorant receptor activation was 1.25 and 1.01 in assay [1]; 0.704 in assay [2]; 2.75 in [3]; 1.01 and 0.937 in assay [17]; 1.14 in [4]; 2.04 in [5]. Besides, the odorant receptor activation is 2.36 in assay [6]; 1.52 and 0.629 in [7]; 1.18 and 1.21 in assay [18]; 1.65 in assay [8]; 0.83 in assay [9]; 0.979 and 1.03 in assay [19]. Moreover, the odorant receptor activation in assay [10] is 0.759; in [11], 1.19; in [12] it was 2.04; in [13], 0.992; in assay [20], 1.04 and 1.08; in assay [14], 1.92 and 0.833. The odorant receptor activation turned out to be 0.76 in [15] and 1.83 in [16].
Regarding `CCCCCC(=O)O` [caproic acid], the odorant receptor activation in [1] amounted to 1.06; in assay [2], 0.19; in assay [3], 1.08; in [17] it was 0.809; in [4], 1.19; in assay [5] it was 0.833. Further, the odorant receptor activation in assay [6] came to 1.17; in assay [7], 0.708; in assay [18] it was 1.01; in [8], 1.12; in assay [9], 1.01; in assay [19], 0.892. For the same molecule, the odorant receptor activation was determined as 0.764 in [10]; 0.662 in assay [11]; 0.946 in [12]; 0.753 in assay [13]; 0.905 in assay [20]; 0.823 in assay [14]. Further, the figures for the odorant receptor activation in [15] and in assay [16] were 0.136 and 0.864, respectively.
